Reference: the supplement of paper PMC9549374
Some of the results follow. No stated cut-off is given here; in the data, active = 2-fold of DMSO or more and inactive = the rest. Single values of this set are uncertain. Some low values are a fixed figure set by the source, not a measured ratio.

These compounds were tested on CM7/1-hgem mouse ES cell-derived cardiomyocytes (assay: maximal number of mAG-hGem(1/110)-positive cardiomyocytes over 96 h, fold-change vs DMSO; higher = more cardiomyocyte cell cycle activity). Conditions: 1 µM; 96 (max over 12 h time points) h.

| Structure (SMILES) | maximal number |
| --- | --- |
| CC(C)=CC1C(C(=O)O)C1(C)C (stereo unspecified) | inactive: 1 |
| O=C(O)c1ccccc1Nc1cccc(C(F)(F)F)c1 | inactive: 1 |
| Cn1c(=O)c2c(ncn2CC2OCCO2)n(C)c1=O | inactive: 1 |
| CC1=CCc2c(cc3oc(C)cc(=O)c3c2O)OC1 | inactive: 1 |
| CC(C(=O)O)c1ccc(CC2CCCC2=O)cc1 (stereo unspecified) | inactive: 1 |
| COc1ccc2c(c1)OC[C@@H](Cc1ccc(OC)c(OC)c1)[C@@H]2O | inactive: 1 |
| N[C@@H](CCC(=O)N[C@@H](CS)C(=O)NCC(=O)O)C(=O)O | active: 2 |
| COc1cc2c(cc1OC)[C@@H]1C(=O)c3ccc4c(c3O[C@@H]1CO2)C=CC(C)(C)O4 | inactive: 0.5 |
| CC(=O)OC1CCC2(C)C3=C(CC[C@H]2C1(C)C)[C@@]1(C)CC[C@@H]([C@@H](C)CCC=C(C)C)[C@]1(C)CC3 (stereo partly specified) | inactive: 1 |
| COc1ccc(-c2coc3c(OC)c(OC)cc(O)c3c2=O)cc1 | inactive: 0.5 |
| COC(=O)Nc1nc2cc(C(=O)c3ccccc3)ccc2[nH]1 | inactive: 1 |

2 records drawn at random from the list so far, as already listed:

| Structure (SMILES) | maximal number |
| --- | --- |
| O=C(O)c1ccccc1Nc1cccc(C(F)(F)F)c1 | inactive: 1 |
| COc1ccc2c(c1)OC[C@@H](Cc1ccc(OC)c(OC)c1)[C@@H]2O | inactive: 1 |
